# Assay results as given in patent publication US9333206B2, “Method for treating fatigue” (priority 2011, dated 2016).
# At least one compound was matched to its structure with a doubt left.
# Experiments:
# IL-1β = experiment: Cerebral IL-1β levels by ELISA after LPS; assay type: in vivo, mice; conditions: 1 mg/Kg s.c., 2 h after LPS
# [1] = tested on: LPS-induced social interaction damage in BALB/c mice; experiment: Social interaction test after LPS administration; conditions: 1 mg/Kg s.c., 1 h before LPS 2.5 μg/mouse i.p.; 0, 2, 4, 8 and 24 h
# [2] = tested on: LPS-induced reduction of food intake in BALB/c mice; experiment: Food intake monitoring 24 h after LPS; conditions: 1 mg/Kg s.c.
# IL-6 = IL-6 plasma levels by ELISA after LPS; assay type: in vivo, mice; conditions: 1 mg/Kg s.c., 2 h after LPS, compared with the vehicle group
compound,measurement,setting,value
C[C@@H]1C[C@H]2[C@@H]3CCC4=CC(=O)C=C[C@]4(C)[C@@]3(F)[C@@H](O)C[C@]2(C)[C@@]1(O)C(=O)CO [dexamethasone],cerebral IL-1β levels,IL-1β,Total protection
same,social interaction (time course and area under the curve),[1],partially protect
same,food intake,[2],increased
same,IL-6 plasma levels,IL-6,significantly reduced
